Assay results published in the RNAGym collection of RNA variant scans (doi:10.1126/science.aae0568).
Variants at the background level are over-represented here.

B1: tRNA (parent)
chain: GUUCCGUUGGCGUAAUGGUAACGCGUCUCCCUCCUAAGGAGAAGACUGCGGGUUCGAGUCCCGUACGGAACG

Variants of: B1
Assay: yeast fitness relative to wild type (ratio to wild type); higher = fitter; tRNA-Arg(CCU), competitive growth, 37 C, YPD
Outline: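 A pool of Saccharomyces cerevisiae strains, each with a tRNA-Arg(CCU) gene variant at the native genomic locus, was competed in YPD at 37°C for 24 hours across six parallel replicates. The variants had been chemically synthesised at a 3% per-site mutation rate over 69 sites, and gene amplicons before and after competition were read by 100-nucleotide paired-end sequencing. Darwinian fitness relative to wild type rested on changes in genotype frequencies. Genotypes required ≥ 100 starting reads, and estimates < 0.5 were set to 0.5.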

GUUCCGUUGGCGUAAUGGUAACGCGUCUUGCUCAUAAGGAGAAGACUGCGGGUUCGAGUCCCGUACGGAACG and GUUCCGUUGGCGUAAUGGUAACGCGUCUUUCUCCUUAGGAGAAGACUGCGGGUUCGAGUCCCGUACGGAACG cannot be ordered by yeast fitness: ≤ 0.5 for the first, ≤ 0.5 for the second.

GUUCCGUUGGCGUAAUGGUAACGCGUCUUCAUCCUAAGGAGAAGACUGCGGGUUUGCGUCCCGUACGGAGCG and GUUCCGUUGGCGUAAUGGUAACGCGUCUUCUUCCUAAGGAGAAGACUGCGGGUGCGAGUCCCGUUCGGUACG cannot be ordered by yeast fitness: ≤ 0.5 for the first, ≤ 0.5 for the second.

Compared with GUUCCGUUGGCGUAAUGGUAACGCGUCUUCCUACUAAAGAGAAGACUGCGGGUUCGAGUCCCGUACGGAACG, GUUCCGUUGGCGUAAUGGUAACGCGUCUUCCUCAUAAGGAGAAGACUGCGAGUUCGAGUCCCGUACGGAACG is higher in yeast fitness: ≤ 0.5 for the first, 0.664 for the second.

GUUCCGUUGGCGUAAUGGUAACGCGUCUUCCUCCUAAGGAGAAGAGUGCGGGUUCGCGUCCUGUACGGAACG and GUUCCGUUGGCGUAAUGGUAACGCGUCUUCCUCCUAAGGAGAAGACUGUGGGUUGGAGUCCCGUACGGAACG cannot be ordered by yeast fitness: ≤ 0.5 for the first, ≤ 0.5 for the second.

GUUCCGUUGGCGUAAUGGUAACGCGUCUUCCUCCUAAGGAGAAGACUGUGGGUUCGAGUCCCGGACGGAACG and GUUCCGUUGGCGUAAUGGUAACGCGUCUUCCUCCUAAGGAGAAGACUGCGGGUUCGAGUCUCGUACAGAACG cannot be ordered by yeast fitness: ≤ 0.5 for the first, ≤ 0.5 for the second.

Going from GUUCCGUUGGCGUAAUGGUAACGCGUCUUCCUCCUAAGCAGAAGACUCCGGGUUCGAGUCCCGUACGGAACG to GUUCCGUUGGCGUAAUGGUAACGCGUCUUCCUCCUAAGGAGAACACUGCGGGUACGAGUCCCGUACGGAACG, the yeast fitness rises from ≤ 0.5 to 0.55.

GUUCCGUUGGCGUAAUGGUAACGCGUCUUCCUCCUAAGGAGAAGACUGCGGGUUCGAGUCCCGUACUGUACG and GUUCCGUUGGCGUAAUGGUAACGCGUCUUCCUCCUAAGGAGAAGACGGGGGGUUCGAGUCCCGUACGGAACG cannot be ordered by yeast fitness: ≤ 0.5 for the first, ≤ 0.5 for the second.

First: GUUCCGUUGGCGUAAUGGUAACGCGUCUCACUCCUUAGGAGAAGACUGUGGGUUCGAGUCCCGUACGGAACG
Second: GUUCCGUUGGCGUAAUGGUAACGCGUCUCACUCCUAAGGCGAAGACUGCGGGUUCGAGUCCCGUACGGAACG
The yeast fitness of the first is lower: ≤ 0.5 for the first, 0.712 for the second.

Compared with GUUCCGUUGGCGUAAUGGUAACGCGUCUCACUCCUAAGGAGUAGACUGUGGGUUCGAGCCCCGUACGGCACG, GUUCCGUUGGCGUAAUGGUAACGCGUCUCACUCCUAAGGAGAAGACUGCGGGUUCGAGUCCCGUACGGCACG is higher in yeast fitness: 0.557 for the first, 1.03 for the second.

Compared with GUUCCGUUGGCGUAAUGGUAACGCGUCUCACUCGUAAGGAGAAGACUGCGGAUUCGAGUACCGAACGGAACG, GUUCCGUUGGCGUAAUGGUAACGCGUCUCACUCUUAAGGAGAAGACUGCGGGUUCGAGUCCCCUACGGAACG is higher in yeast fitness: ≤ 0.5 for the first, 0.698 for the second.

GUUCCGUUGGCGUAAUGGUAACGCGUCUCACUCCUAAGGAGAAGAUUACGGGUUUGAGACCCGUACGGAACG and GUUCCGUUGGCGUAAUGGUAACGCGUCUCACUCCUAAGGAGAAGACUGGGGGUUCGAGUCCCGUCCGGAACG cannot be ordered by yeast fitness: ≤ 0.5 for the first, ≤ 0.5 for the second.

GUUCCGUUGGCGUAAUGGUAACGCGUCUCACUCCUAAGGAGAAGACUGUGGGUUCGGGUCCCGUACGGAACG and GUUCCGUUGGCGUAAUGGUAACGCGUCUCACUCCUAAGGAGAAGACUGCGGGUUAGAGUCCCGUACAGAACG cannot be ordered by yeast fitness: ≤ 0.5 for the first, ≤ 0.5 for the second.

Going from GUUCCGUUGGCGUAAUGGUAACGCGUCUCACUCCUAAGGAGAAGACUGCGGGUUCGAGUCACGUCCGGAACG to GUUCCGUUGGCGUAAUGGUAACGCGUCUCACUCCUAAAGAGCAGACUGCGCGUUCGAGUUCCGUACAGAACG, the yeast fitness falls from 0.578 to ≤ 0.5.

Going from GUUCCGUUGGCGUAAUGGUAACGCGUCUCACUCCUAACGAAAAGACUGCGGGUUCCAGUCCCAUACGGAACG to GUUCCGUUGGCGUAAUGGUAACGCGUCUCACUCCUAAGAAGAAGACUGCGGGUUCGAGUCCCGUACGGAACG, the yeast fitness rises from ≤ 0.5 to 0.833.

GUUCCGUUGGCGUAAUGGUAACGCGUCUCACUCCUAAGGAGAAGACUGCAGGUUGGAGUCCCGUACGGAACG and GUUCCGUUGGCGUAAUGGUAACGCGUCUCACACCUAAGGAGAAGACGGCGGGUUCGGGUCUCGUACGGAACG cannot be ordered by yeast fitness: ≤ 0.5 for the first, ≤ 0.5 for the second.

GUUCCGUUGGCGUAAUGGUAACGCGUCUCACGCCUAAGGAGAAGACUGUGGGUUGGAGUCCCGUACGGAACG and GUUCCGUUGGCGUAAUGGUAACGCGUCUCGCUCCUGAGGAGAAGACUGCGGGUUCGUGUCCCGUACGGAACG cannot be ordered by yeast fitness: ≤ 0.5 for the first, ≤ 0.5 for the second.

GUUCCGUUGGCGUAAUGGUAACGCGUCUCGCUCCUAUGGAGAAGACCGCGGGUUCGAGUACCAUACGGAACG and GUUCCGUUGGCGUAAUGGUAACGCGUCUCGCUCCUAAGGGGAAGACUGCGGGAUCGAGUCCCGUACGGAACG cannot be ordered by yeast fitness: ≤ 0.5 for the first, ≤ 0.5 for the second.

GUUCCGUUGGCGUAAUGGUAACGCGUCUCGCUCCUAAGGAGUAGACUGCGGGUUUGAGUCCCGUACGGAACG and GUUCCGUUGGCGUAAUGGUAACGCGUCUCGCUCCUAAGGAGAAGCCUACGGGUUCGAGUCCCGUACGGAACG cannot be ordered by yeast fitness: ≤ 0.5 for the first, ≤ 0.5 for the second.

With GUUCCGUUGGCGUAAUGGUAACGCGUCUCGUUCCUAAGCAGAAGACUGCGGGUUCGAGUCGCGUACGGAACG the yeast fitness was ≤ 0.5.
